# Assay: Profiling of absorbed constituents and metabolites in mice plasma after oral administration of RA (UFLC-DAD-Q-TOF-MS/MS)
# Conditions: oral RA extract 6 g/kg BW; cyclophosphamide-induced immunosuppressed Balb/c mice; plasma sampled 0.25-36 h; '-' = not detected
compound,measurement,value
"COc1cc(O)c2c(=O)c(O)c(-c3ccc(O)cc3)oc2c1 [Peak M8, Rhamnocitrin]",Source: Dosed Plasma (time points at which the compound was detected),0.25 to 8 h
